The data set concerns mSWI/SNF complexes. Nature of the data set: mSWI/SNF complex purification with HA-tagged baits and mass spectrometry (peptide counts). The arrangement: species or system human.
The mark [1] stands for this setting: 293_HA-BRD7: HA-BRD7 bait purification, total peptide count per co-purified protein.
The mark [2] stands for this setting: 293_HA-BRD7: HA-BRD7 bait purification, unique peptide count per co-purified protein.
[3] abbreviates: 293_HA-DPF2 purification, total peptides.
The mark [4] stands for this setting: 293_HA-DPF2 purification, unique peptides.
The mark [5] stands for this setting: total peptide count of the co-purified protein, 293_HA-BRD9 (HA-BRD9 bait, mass spectrometry), Table 3b.
The mark [6] stands for this setting: unique peptide count of the co-purified protein, 293_HA-BRD9 (HA-BRD9 bait, mass spectrometry), Table 3b.
[7] abbreviates: 293_HA-BRD7 bait purification, mass spectrometry, total peptides per co-purified protein.
Where [8] appears, read: 293_HA-BRD7 bait purification, mass spectrometry, unique peptides per co-purified protein.
Setting [9] is: 293_HA-BRD7 bait purification, mass spectrometry, total peptide count per identified protein.
Setting [10] is: 293_HA-BRD7 bait purification, mass spectrometry, unique peptide count per identified protein.

Consider SMARCC1, for which the Total by setting is: under setting [1], 203; under setting [3], 359; under setting [5], 53. The substance further gave a Unique under setting [2] of 83, a Unique under setting [4] of 87 and a Unique under setting [6] of 36.
Under setting [1], NIFK displayed a Total of 12. Further, under setting [2], the Unique stood at 12.
AGO2: under setting [7], the Total is reported as 2. The same substance came in with a Unique under setting [8] of 2.
As for TUBA1B, the Total under setting [9] was 1. This substance also came in with a Unique under setting [10] of 1.
As to CDC42BPB, under setting [5], the Total was found to be 1. Moreover, under setting [6], the Unique turned out to be 1.
Take MGST3: the Total under setting [9] was determined as 1. Under setting [10], this substance showed a Unique of 1.
GLTSCR1 displayed a Total under setting [5] of 62. Also, the Unique under setting [6] is on record as 33.
In turn, GLTSCR2 had a Total under setting [7] of 3. For the same substance, the Unique under setting [8] is 3.
TUBB3 yielded a Total under setting [1] of 5, a Total under setting [9] of 1 and a Total under setting [5] of 1. The Unique under setting [2] worked out at 4, the Unique under setting [10] was 1 and the Unique under setting [6] is recorded as 1.
The substance MPG registered a Total under setting [1] of 4. This substance also yielded a Unique under setting [2] of 4.
Consider DNAJA2, for which, under setting [7], the Total stood at 3. The substance further displayed a Unique under setting [8] of 3.
Consider PRKAR2A, for which the Total under setting [9] is 1. For the same substance, the Unique under setting [10] is on record as 1.
In turn, DMBT1 came in with a Total under setting [5] of 1. Besides, the Unique under setting [6] was 1.
The substance ##LRP8 came in with a Total under setting [9] of 1. The Unique under setting [10] was 1.
As for MACF1, the Total under setting [5] was found to be 1. For the same substance, under setting [6], the Unique came out at 1.
As to SLC7A5, the Total under setting [7] is given as 2. Further, under setting [8], the Unique was 2.
In the case of HSPA1L, the Total runs as follows: under setting [1], 16; under setting [5], 5. Also, the Unique reads like this: under setting [2], 13; under setting [6], 5.
In turn, PELP1 gave a Total under setting [7] of 1. Also, under setting [8], the Unique turned out to be 1.
The substance EIF5A yielded a Total under setting [7] of 1. The substance also had a Unique under setting [8] of 1.
Under setting [9], GCN1L1 showed a Total of 1. This substance also had a Unique under setting [10] of 1.
As for TAF5L, under setting [9], the Total came out at 1. Besides, under setting [10], the Unique turned out to be 1.
Turning to PRDX3, the Total under setting [1] turned out to be 4. The Unique under setting [2] turned out to be 4.
Under setting [1], NONO gave a Total of 7. Further, under setting [2], the Unique is on record as 6.
For the substance PABPC1, the Total under setting [1] is listed as 9. The substance further came in with a Unique under setting [2] of 9.
As to SSRP1, the Total is, setting by setting: under setting [9], 1; under setting [5], 1. The Unique by setting is: under setting [10], 1; under setting [6], 1.
For POTEKP, the Total reads like this: under setting [7], 5; under setting [3], 3. In addition, the Unique stood at 3 under setting [8] and 3 under setting [4].
RIF1 returned a Total under setting [7] of 2. Besides, the Unique under setting [8] is recorded as 2.
Take ##LRP4: the Total under setting [9] amounted to 1. This substance yielded a Unique under setting [10] of 1.
As to SOX21, the Total under setting [3] stood at 1. The Unique under setting [4] is 1.
Substance KPNA4 gave a Total under setting [1] of 5. Further, the Unique under setting [2] was found to be 5.
Under setting [9], RAB7A came in with a Total of 1. This substance showed a Unique under setting [10] of 1.
Turning to CD3EAP, the Total under setting [9] was 1. The Unique under setting [10] was determined as 1.
CCT5 yielded a Total under setting [9] of 1. Also, the Unique under setting [10] was determined as 1.
PSMD1 showed a Total under setting [7] of 2. The Unique under setting [8] is listed as 2.
Consider GPI, for which the Total under setting [7] is given as 2. The same substance came in with a Unique under setting [8] of 2.
With REV3L, the Total under setting [9] is recorded as 1. Besides, under setting [10], the Unique worked out at 1.
As for HSPA9, the Total reads like this: under setting [1], 53; under setting [3], 10; under setting [5], 11. Besides, the Unique reads like this: under setting [2], 40; under setting [4], 7; under setting [6], 11.
As to NUDT21, under setting [1], the Total is on record as 6. The Unique under setting [2] is given as 6.
The substance LYZ returned a Total under setting [5] of 1. Under setting [6], this substance yielded a Unique of 1.
Take TUBB4B: the Total is, setting by setting: under setting [9], 1; under setting [5], 1. The Unique is listed as 1 under setting [10] and 1 under setting [6].
As to TMA16, the Total under setting [7] worked out at 2. This substance showed a Unique under setting [8] of 2.
For RAB1A, under setting [9], the Total is on record as 1. The Unique under setting [10] is 1.
Substance SRP54 came in with a Total under setting [9] of 1. In addition, the Unique under setting [10] stood at 1.
Consider PGRMC1, for which the Total under setting [7] was found to be 3. Also, the Unique under setting [8] stood at 3.
As for CHD3, the Total under setting [5] was 1. This substance also showed a Unique under setting [6] of 1.
Take NUP188: the Total under setting [9] is reported as 1. The Unique under setting [10] amounted to 1.
##ASCC3 returned a Total under setting [9] of 1. Moreover, the Unique under setting [10] stood at 1.
SP1 returned a Total under setting [7] of 1. The Unique under setting [8] is listed as 1.
Turning to DDX52, the Total under setting [7] is 4. Further, the Unique under setting [8] is 3.
Substance EIF4H yielded a Total under setting [7] of 2. Under setting [8], this substance had a Unique of 1.
On the same counts, the results for CHD4 are 3 and 3.
Turning to CYCS, the Total under setting [9] was found to be 1. Moreover, the Unique under setting [10] was found to be 1.
With DDX39A, the Total under setting [9] is reported as 1. The substance also yielded a Unique under setting [10] of 1.
In the case of PSIP1, the Total under setting [9] was determined as 1. This substance also gave a Unique under setting [10] of 1.
SEC61A1 came in with a Total under setting [1] of 5. This substance also showed a Unique under setting [2] of 4.
The substance FLG2 yielded a Total under setting [7] of 2. Under setting [8], this substance showed a Unique of 2.
With HOXA5, the Total under setting [9] is listed as 1. The substance also gave a Unique under setting [10] of 1.
With TUBB, the Total worked out at 5 under setting [1], 1 under setting [3] and 2 under setting [5]. The Unique was found to be 5 under setting [2], 1 under setting [4] and 1 under setting [6].
Under setting [9], ZIK1 returned a Total of 1. The substance also gave a Unique under setting [10] of 1.
In turn, SCFD1 gave a Total under setting [9] of 1. Under setting [10], this substance came in with a Unique of 1.
Substance MMTAG2 registered a Total under setting [1] of 18. The Unique under setting [2] turned out to be 14.
TUBB2B showed a Total under setting [9] of 1. Under setting [10], this substance showed a Unique of 1.
In the case of XRCC6, the Total under setting [1] turned out to be 8. Also, the Unique under setting [2] turned out to be 8.
For EPB41L4B, the Total under setting [7] is given as 2. This substance also showed a Unique under setting [8] of 2.
As to TOR1AIP1, the Total by setting is: under setting [9], 1; under setting [7], 3. The substance further had a Unique under setting [10] of 1 and a Unique under setting [8] of 3.
Under setting [9], MYH11 yielded a Total of 1. Under setting [10], the Unique is listed as 1.
For the substance CAMTA1, the Total under setting [9] was determined as 1. This substance had a Unique under setting [10] of 1.
Consider SLC25A1, for which, under setting [1], the Total came to 8. This substance showed a Unique under setting [2] of 8.
DNAJA1 yielded a Total under setting [1] of 4. The Unique under setting [2] came out at 4.
For the substance GAPDH, the Total runs as follows: under setting [9], 1; under setting [5], 1. Further, the Unique turned out to be 1 under setting [10] and 1 under setting [6].
For EZR, under setting [1], the Total stood at 7. Moreover, under setting [2], the Unique stood at 7.
As for SRSF1, under setting [9], the Total turned out to be 1. Under setting [10], the Unique amounted to 1.
DYNC1H1: the Total under setting [1] came out at 5. This substance also registered a Unique under setting [2] of 5.
With NCAPH2, under setting [9], the Total is reported as 1. Moreover, the Unique under setting [10] came out at 1.
For LARP4, under setting [9], the Total is 1. Further, the Unique under setting [10] turned out to be 1.
PCID2 yielded a Total under setting [9] of 1. The substance also gave a Unique under setting [10] of 1.
The substance CCT7 came in with a Total under setting [7] of 2. Under setting [8], this substance displayed a Unique of 1.
TFAM displayed a Total under setting [7] of 4. The substance further displayed a Unique under setting [8] of 4.
As for CDK12, the Total under setting [1] worked out at 6. The substance also gave a Unique under setting [2] of 5.
In turn, PKM showed a Total under setting [1] of 6. Under setting [2], this substance registered a Unique of 6.
In turn, RFC2 yielded a Total under setting [7] of 3. The substance also yielded a Unique under setting [8] of 3.
##DNAH5 registered a Total under setting [7] of 3. Under setting [8], this substance registered a Unique of 2.
Consider HIST1H1A, for which the Total was 1 under setting [9] and 1 under setting [5]. Also, the Unique amounted to 1 under setting [10] and 1 under setting [6].
TARDBP showed a Total under setting [1] of 4. Under setting [2], this substance had a Unique of 4.
The substance XRCC5 yielded a Total under setting [1] of 9. The same substance displayed a Unique under setting [2] of 8.
Consider ZNF768, for which the Total under setting [1] is 8. The same substance displayed a Unique under setting [2] of 8.
Turning to MRPL28, the Total under setting [7] amounted to 1. Under setting [8], the Unique stood at 1.
Regarding ANXA2, the Total reads like this: under setting [9], 1; under setting [5], 4. Besides, the Unique was found to be 1 under setting [10] and 3 under setting [6].
HSPA2: the Total stood at 7 under setting [1], 1 under setting [3] and 2 under setting [5]. The Unique runs as follows: under setting [2], 7; under setting [4], 1; under setting [6], 2.
Under setting [7], ESYT2 came in with a Total of 4. The substance also registered a Unique under setting [8] of 4.
Turning to VIM, the Total runs as follows: under setting [1], 8; under setting [3], 2; under setting [5], 1. The Unique came out at 8 under setting [2], 2 under setting [4] and 1 under setting [6].
On to HADHA, for which the Total is 15 under setting [1] and 1 under setting [5]. Besides, the Unique is, setting by setting: under setting [2], 15; under setting [6], 1.

(Values after patent US12729225B2, “Non-canonical SWI/SNF complex and uses thereof” (Dana-Farber Cancer Institute, Inc., priority 2018, dated 2026).)
